Measurements as given in patent US6803233B2, “Model for Alzheimer's disease and other neurodegenerative diseases” (priority 2000, dated 2004).
“Also recorded” adds a separate entry of the source. At least one structure is not confirmed: it was looked up by name or label, or the drawing left a doubt.

Test system: microglia
Experiment: CD11b immunostaining of hippocampus of rats injected daily with statins
Type: in vivo, rat
Details: male Sprague-Dawley rats, 10 mg/kg i.p. daily for 39 days
Description: Brains were then removed, postfixed in perfusate for 5-6 hors, and cryoprotected in 15% sucrose/PB followed by 30% sucrose/PB (12-24 hours each) at 4° C. Coronal sections were cut at 20-30 μm by using a freezing microtome and collected into PBS. Immunostaining was performed as described for the in vitro experiments using monoclonal antibody CD11b that reacts with both active and non-active microglia.

## CCC(C)(C)C(=O)O[C@H]1C[C@@H](C)C=C2C=C[C@H](C)[C@H](CC[C@@H]3C[C@@H](O)CC(=O)O3)[C@H]21 [simvastatin]
  microglial reactions: induced; also recorded: Induction of microglial reactions
